Among the data in article PMC4172784 are binding values, retold here.

The target of this assay is T1, HA-tagged BIV Vif (VR-BIV Vif-HA) (bovine immunodeficiency virus (BIV BIM127)) (UniProt P19563).
T1 sequence: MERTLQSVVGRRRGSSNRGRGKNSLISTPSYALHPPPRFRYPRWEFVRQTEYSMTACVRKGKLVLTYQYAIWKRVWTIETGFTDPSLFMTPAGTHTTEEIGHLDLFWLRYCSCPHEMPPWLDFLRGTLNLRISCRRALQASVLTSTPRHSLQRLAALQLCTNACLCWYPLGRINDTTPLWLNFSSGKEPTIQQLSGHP
The assay is described as follows: co-IP.

These are yes or no findings as the source states them, for the method shown. In cells and extracts the contact can be indirect. Binding calls can cover weak binding; strength is not graded here. Sequences can lack the tags named with a protein.

Take “cmyc-tagged btCul2 (VR-btCul2-cmyc) (Bos taurus)”: the binding result is “binds”.
